# Laboratory results as given in patent US20130197070.
# Chains of the proteins cited; added tags and fusions are not shown. Residues count along the entry.
# UniProt P30530, 26-894: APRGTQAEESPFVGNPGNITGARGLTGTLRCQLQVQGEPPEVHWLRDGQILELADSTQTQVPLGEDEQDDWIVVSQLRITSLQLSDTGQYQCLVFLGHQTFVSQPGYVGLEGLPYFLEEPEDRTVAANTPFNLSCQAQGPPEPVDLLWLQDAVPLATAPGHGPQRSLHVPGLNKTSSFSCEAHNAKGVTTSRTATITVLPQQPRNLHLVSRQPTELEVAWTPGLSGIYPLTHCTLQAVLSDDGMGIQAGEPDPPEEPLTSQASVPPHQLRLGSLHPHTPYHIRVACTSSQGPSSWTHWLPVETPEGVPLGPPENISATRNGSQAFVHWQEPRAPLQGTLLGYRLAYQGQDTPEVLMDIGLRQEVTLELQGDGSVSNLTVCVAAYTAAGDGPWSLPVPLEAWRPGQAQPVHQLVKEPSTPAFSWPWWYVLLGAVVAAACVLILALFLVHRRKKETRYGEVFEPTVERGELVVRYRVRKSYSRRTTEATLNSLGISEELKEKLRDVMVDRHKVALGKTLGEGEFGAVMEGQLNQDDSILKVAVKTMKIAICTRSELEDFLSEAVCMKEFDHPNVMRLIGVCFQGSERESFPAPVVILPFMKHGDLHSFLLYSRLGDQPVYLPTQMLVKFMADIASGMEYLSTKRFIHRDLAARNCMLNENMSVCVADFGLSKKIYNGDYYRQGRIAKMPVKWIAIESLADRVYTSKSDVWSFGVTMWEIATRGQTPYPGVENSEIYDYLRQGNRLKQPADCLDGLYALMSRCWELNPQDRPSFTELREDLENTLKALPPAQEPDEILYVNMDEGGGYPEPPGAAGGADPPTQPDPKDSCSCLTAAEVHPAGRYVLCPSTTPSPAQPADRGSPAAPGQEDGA
# For some assays here: At least one result comes from cells or an extract, where the contact may be indirect. For some assays here: A negative result means that nothing was seen under these conditions. For some assays here: The exact form of at least one protein or probe is not confirmed.
# How the values were obtained:
# [1] = biological target: Axl receptor tyrosine kinase (cell surface) (Homo sapiens) (UniProt P30530); experiment: activity in cells; details: 2'-F on all pyrimidines; 200 nM aptamer inhibits basal and Gas6-induced Axl and ERK phosphorylation in U87MG cells; protein on the cell surface
# [2] = biological target: Axl receptor tyrosine kinase (cell surface) (Homo sapiens) (UniProt P30530); experiment: binding assay; details: 2'-F pyrimidines; negative control, background binding to cells at 50 nM, polyinosine competitor, RT; protein on the cell surface; label: 5'-32P
Sequence,functional effect of the aptamer [1],binding result [2]
AUGAUCAAUCGCCUCAAUUCGACAGGAGGCUCAC [GL21 52-85 (GL21.T)],active,–
UUCGUACCGGGUAGGUUGGCUUGCACAUAGAACGUGUCA [unrelated aptamer],–,no binding
